Columns and labels:
[1] = system: intracellular forms of T. cruzi (Tulahuen strain); experiment: Activity against intracellular forms of T. cruzi (Tulahuen-β gal strain) in L929 cultures, CPRG readout; assay type: cell-based, Trypanosoma cruzi; settings: seven days
Description: L929 cell lines were used to evaluate the effect of the nucleoside derivatives on the cellular viability of mammalian host cells and to assess their activity against intracellular forms of T. cruzi (Tulahuen strain expressing E. coli β-galactosidase gene, DTU VI) as reported. 2D and 3D culture systems of rat cardiomyoblast cell lines (H9C2(2-1)) were used to evaluate cardiotoxicity and to test the derivatives’ activity on intracellular forms (Y strain, DTU II). In all assays, the cell cultures were maintained at 37 °C under an atmosphere of 5% CO2.
(§1) Bloodstream trypomastigotes of the Y strain (DTU II) were obtained by cardiac puncture of infected Swiss Webster mice on the parasitemia peak to perform drug sensitivity assays. Trypomastigote forms of the Tulahuen-β gal strain were collected from the supernatant of previously infected L929 cell cultures (host/parasite cell ratio 10:1). The intracellular forms T. cruzi were studied by the infection of L929 and H9C2 (2D and 3D) cell cultures infected for 48 and 24 h with trypomastigotes of Tulahuen-β gal and Y strains, respectively. The Leishmania mexicana-Cas9 T7 strain (LmexCas9) was derived from L. mexicana WT promastigotes by expression of the Streptococcus pyogenes Cas9 nuclease gene ‘Cas9′ and maintained on 32 μg/mL hygromycin [51]. This strain and the derived strains Cas9^ΔNT1 and Cas9^ΔNT1+TcrNT2 were cultured in HOMEM medium supplemented with 10% of FBS and 1% Penicillin-Streptomycin antibiotic in unvented flasks at 25 °C [52]. The Cas9^ΔNT1 strain is identical to Cas9 except that the LmexNT1.1/NT1.2 locus encoding the L. mexicana adenosine/ pyrimidine transporters was excised using Cas9 [17, 40]. Cas9^ΔNT1+TcrNT2 is the further modification of that strain by the expression of the T. cruzi nucleoside transporter 2 (TcrNT2) gene in it, using the vector pNUS-HcN [53]. Appropriate antibiotics were added for the selection and maintenance of transfectants.
In an initial step, nucleoside derivatives were assayed against intracellular forms of Tulahuen-β gal strain in L929 cell lines. Assays were performed in sterile 96-well microtiter plates with 4 × 10^3 cells/well and 4 × 10^4 parasites/well (host/parasite cell ratio 1:10). […] Parasite burden was analyzed by adding the substrate CPRG (chlorophenol red ß-D-galactopyranoside) followed by measurements (spectrophotometrically) at 570 nm. The results were expressed as percentage of reduction in parasite growth compared to untreated cells, and EC50 values were calculated. […] After seven days of treatment, the cultures were fixed, stained with Giemsa, and 200 cells were quantified by light microscopy. The results were expressed as % of reduction in parasite burden. […]

[2] = system: bloodstream trypomastigotes of T. cruzi (Y strain); experiment: Activity against bloodstream trypomastigotes, light microscopy counting; assay type: cell-based, Trypanosoma cruzi; settings: IC50 H9C2 / EC50 bloodstream trypomastigotes Y strain, 24 h
Description: as §1
To analyze the compound activity against bloodstream trypomastigotes of T. cruzi (Y strain), […] of parasite were added in 96-well microtiter plates and incubated for 2 or for 24 h at 37 °C in RPMI culture medium in the presence or absence of each compound (up to 30 µM). The death rates were quantified by light microscopy using a Neubauer chamber to determine the EC50 [49, 58]. The data results from two independent experiments performed in duplicate were obtained.

SMILES | SI (IC50/EC50) [1] | SI (IC50/EC50) [2]
O=C(Cn1ccnc1[N+](=O)[O-])NCc1ccccc1 [Bz, Benznidazole, reference compound] | >101.5 | >43.48
Nc1ncnc2c1c(-c1ccc(Cl)c(F)c1)cn2[C@@H]1O[C@H](CO)[C@@H](O)[C@H]1O [FH10714, 7-(3-fluoro,4-chlorophenyl)tubercidin] | 118.6 | >22.39
Nc1ncnc2c1c(-c1ccc(F)c(F)c1)cn2[C@@H]1O[C@H](CO)[C@@H](O)[C@H]1O [FH11706, 7-(3,4-Difluorophenyl)tubercidin] | 106.7 | >17.06
Nc1ncnc2c1c(-c1ccc(Cl)c(Cl)c1)cn2[C@@H]1O[C@H](CO)C[C@H]1O [FH8513, 7-(3,4-dichlorophenyl)-3′-deoxytubercidin] | 111.3 | 45.34
